# Measured values: the supplement of paper PMC8728848
# Some of the results follow.
# B1: AT5G17240(42) (Arabidopsis thaliana), Q6NQJ8 (protein)
# chain: MDLEHQTMETFLRWAAEIGISDSIDSSRFRDSCLGHSLSVSDFPDAGGRGLGAARELKKGELVLKVPRKALMTTESIIAKDLKLSDAVNLHNSLSSTQILSVCLLYEMSKEKKSFWYPYLFHIPRDYDLLATFGNFEKQALQVEDAVWATEKATAKCQSEWKEAGSLMKELELKPKFRSFQAWLWASATISSRTLHVPWDSAGCLCPVGDLFNYDAPGDYSNTPQGPESANNVEEAGLVVETHSERLTDGGFEEDVNAYCLYARRNYQLGEQVLLCYGTYTNLELLEHYGFMLEENSNDKVFIPLETSLFSLASSWPKDSLYIHQDGKLSFALISTLRLWLIPQSQRDKSVMRLVYAGSQISVKNEILVMKWMSEKCGSVLRDLPTSVTEDTVLLHNIDKLQDPELRLEQKETEAFGSEVRAFLDANCLWDVTVLSGKPIEFSRKTSRMLSKWRWSVQWRLSYKRTLADCISYCNEKMNNLLGTQDRLRDL
# Experiments:
# Experiment in all cases: glycan array binding signal (z-score within array); higher = stronger binding
# Conditions in all cases: glycan notation: IUPAC condensed, linker removed
# [1] = molecular target: Gal(b1-4)GlcNAc(b1-3)Gal(b1-4)GlcNAc(b1-3)Gal(b1-4)GlcNAc(b1-3)Gal(b1-4)GlcNAc(b1-2)Man(a1-3)[Gal(b1-4)GlcNAc(b1-3)Gal(b1-4)GlcNAc(b1-3)Gal(b1-4)GlcNAc(b1-3)Gal(b1-4)GlcNAc(b1-2)Man(a1-6)]Man(b1-4)GlcNAc(b1-4)GlcNAc
# Outline: (§1)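 The binding signal is a Z-score computed within each array and averaged over linkers. Arrays of the same protein sequence at different concentrations or buffers were also averaged together. Data originate from 3228 arrays in the Consortium for Functional Glycomics database, kept only where the protein sequence was available.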
# [2] = molecular target: Gal(b1-4)GlcNAc(b1-3)Gal(b1-4)GlcNAc(b1-3)Gal(b1-4)GlcNAc(b1-3)Gal(b1-4)GlcNAc(b1-2)Man(a1-3)[Gal(b1-4)GlcNAc(b1-3)Gal(b1-4)GlcNAc(b1-3)Gal(b1-4)GlcNAc(b1-3)Gal(b1-4)GlcNAc(b1-2)Man(a1-6)]Man(b1-4)GlcNAc(b1-4)[Fuc(a1-6)]GlcNAc
# Outline: as §1
# [3] = molecular target: Gal(b1-4)GlcNAc(b1-3)Gal(b1-4)GlcNAc(b1-3)Gal(b1-4)GlcNAc(b1-3)Gal(b1-4)GlcNAc(b1-2)[Gal(b1-4)GlcNAc(b1-3)Gal(b1-4)GlcNAc(b1-3)Gal(b1-4)GlcNAc(b1-3)Gal(b1-4)GlcNAc(b1-6)]Man(a1-6)[Gal(b1-4)GlcNAc(b1-3)Gal(b1-4)GlcNAc(b1-3)Gal(b1-4)GlcNAc(b1-3)Gal(b1-4)GlcNAc(b1-2)Man(a1-3)]Man(b1-4)GlcNAc(b1-4)[Fuc(a1-6)]GlcNAc
# Outline: as §1
# [4] = molecular target: Gal(b1-4)GlcNAc(b1-3)Gal(b1-4)GlcNAc(b1-3)Gal(b1-4)GlcNAc(b1-3)Gal(b1-4)GlcNAc(b1-3)Gal(b1-4)GlcNAc(b1-2)Man(a1-3)[Gal(b1-4)GlcNAc(b1-3)Gal(b1-4)GlcNAc(b1-3)Gal(b1-4)GlcNAc(b1-3)Gal(b1-4)GlcNAc(b1-3)Gal(b1-4)GlcNAc(b1-2)Man(a1-6)]Man(b1-4)GlcNAc(b1-4)GlcNAc
# Outline: as §1
# [5] = molecular target: Gal(b1-4)GlcNAc(b1-3)Gal(b1-4)GlcNAc(b1-3)Gal(b1-4)GlcNAc(b1-3)Gal(b1-4)GlcNAc(b1-3)Gal(b1-4)GlcNAc(b1-2)Man(a1-3)[Gal(b1-4)GlcNAc(b1-3)Gal(b1-4)GlcNAc(b1-3)Gal(b1-4)GlcNAc(b1-3)Gal(b1-4)GlcNAc(b1-3)Gal(b1-4)GlcNAc(b1-2)Man(a1-6)]Man(b1-4)GlcNAc(b1-4)[Fuc(a1-6)]GlcNAc
# Outline: as §1
# [6] = molecular target: Gal(b1-4)GlcNAc(b1-3)Gal(b1-4)GlcNAc(b1-3)Gal(b1-4)GlcNAc(b1-3)Gal(b1-4)GlcNAc(b1-3)Gal(b1-4)GlcNAc(b1-2)[Gal(b1-4)GlcNAc(b1-3)Gal(b1-4)GlcNAc(b1-3)Gal(b1-4)GlcNAc(b1-3)Gal(b1-4)GlcNAc(b1-3)Gal(b1-4)GlcNAc(b1-6)]Man(a1-6)[Gal(b1-4)GlcNAc(b1-3)Gal(b1-4)GlcNAc(b1-3)Gal(b1-4)GlcNAc(b1-3)Gal(b1-4)GlcNAc(b1-3)Gal(b1-4)GlcNAc(b1-2)Man(a1-3)]Man(b1-4)GlcNAc(b1-4)[Fuc(a1-6)]GlcNAc
# Outline: as §1
# [7] = molecular target: Gal(b1-4)GlcNAc(b1-3)Gal(b1-4)GlcNAc(b1-3)Gal(b1-4)GlcNAc(b1-3)Gal(b1-4)GlcNAc(b1-3)Gal(b1-4)GlcNAc(b1-3)Gal(b1-4)GlcNAc(b1-2)Man(a1-3)[Gal(b1-4)GlcNAc(b1-3)Gal(b1-4)GlcNAc(b1-3)Gal(b1-4)GlcNAc(b1-3)Gal(b1-4)GlcNAc(b1-3)Gal(b1-4)GlcNAc(b1-3)Gal(b1-4)GlcNAc(b1-2)Man(a1-6)]Man(b1-4)GlcNAc(b1-4)GlcNAc
# Outline: as §1
# [8] = molecular target: Gal(b1-4)GlcNAc(b1-3)Gal(b1-4)GlcNAc(b1-3)GalNAc
# Outline: as §1
# [9] = molecular target: Gal(b1-4)GlcNAc(b1-3)Gal(b1-4)GlcNAc(b1-3)[Gal(b1-4)GlcNAc(b1-3)Gal(b1-4)GlcNAc(b1-6)]GalNAc
# Outline: as §1
# [10] = molecular target: Gal(b1-4)GlcNAc(b1-3)Gal(b1-4)GlcNAc(b1-6)[Gal(b1-3)]GalNAc
# Outline: as §1
# [11] = molecular target: Gal(b1-4)GlcNAc(b1-3)Gal(b1-4)[Fuc(a1-3)]GlcNAc(b1-3)Gal(b1-4)[Fuc(a1-3)]GlcNAc
# Outline: as §1
# [12] = molecular target: Gal(b1-4)GlcNAc(b1-3)GalNAc
# Outline: as §1
# [13] = molecular target: Gal(b1-4)GlcNAc(b1-3)[Fuc(a1-3)GlcNAc(b1-6)]Gal(b1-4)Glc
# Outline: as §1
# [14] = molecular target: Gal(b1-4)GlcNAc(b1-3)[Gal(b1-4)GlcNAc(b1-6)]Gal(b1-4)GlcNAc
# Outline: as §1
# [15] = molecular target: Gal(b1-4)GlcNAc(b1-3)[GlcNAc(b1-6)]Gal(b1-4)GlcNAc
# Outline: as §1
# [16] = molecular target: Gal(b1-4)GlcNAc(b1-6)Gal(b1-4)GlcNAc
# Outline: as §1
# [17] = molecular target: Gal(b1-4)GlcNAc(b1-6)GalNAc
# Outline: as §1
# [18] = molecular target: Gal(b1-4)GlcNAc(b1-6)[Gal(b1-3)]GalNAc
# Outline: as §1
# [19] = molecular target: Gal(b1-4)GlcNAc(b1-6)[Gal(b1-4)GlcNAc(b1-3)]GalNAc
# Outline: as §1
# Gal(b1-4)GlcNAc6P = molecular target: Gal(b1-4)GlcNAc6P
# Outline: as §1
# Gal(b1-6)Gal = molecular target: Gal(b1-6)Gal
# Outline: as §1
# Gal3S(b1-3)GalNAc = molecular target: Gal3S(b1-3)GalNAc
# Outline: as §1
# Gal3S(b1-3)GlcNAc = molecular target: Gal3S(b1-3)GlcNAc
# Outline: as §1
# [20] = molecular target: Gal3S(b1-3)[Fuc(a1-4)]GlcNAc
# Outline: as §1
# Gal3S(b1-4)Glc = molecular target: Gal3S(b1-4)Glc
# Outline: as §1
# Gal3S(b1-4)Glc6S = molecular target: Gal3S(b1-4)Glc6S
# Outline: as §1
# Gal3S(b1-4)GlcNAc = molecular target: Gal3S(b1-4)GlcNAc
# Outline: as §1
# [21] = molecular target: Gal3S(b1-4)[Fuc(a1-3)]Glc6S
# Outline: as §1
# [22] = molecular target: Gal3S(b1-4)[Fuc(a1-3)]GlcNAc
# Outline: as §1
# [23] = molecular target: Gal3S(b1-4)[Fuc(a1-3)]GlcNAc6S
# Outline: as §1
# Gal3S4S(b1-4)GlcNAc = molecular target: Gal3S4S(b1-4)GlcNAc
# Outline: as §1
# Gal3S6S(b1-4)GlcNAc = molecular target: Gal3S6S(b1-4)GlcNAc
# Outline: as §1
# Gal3S6S(b1-4)GlcNAc6S = molecular target: Gal3S6S(b1-4)GlcNAc6S
# Outline: as §1
# Gal4S(b1-4)GlcNAc = molecular target: Gal4S(b1-4)GlcNAc
# Outline: as §1
# Gal4S6S(b1-4)GlcNAc = molecular target: Gal4S6S(b1-4)GlcNAc
# Outline: as §1
# Gal6P(b1-4)GlcNAc = molecular target: Gal6P(b1-4)GlcNAc
# Outline: as §1
# Gal6S(b1-3)GlcNAc = molecular target: Gal6S(b1-3)GlcNAc
# Outline: as §1
# Gal6S(b1-3)GlcNAc6S = molecular target: Gal6S(b1-3)GlcNAc6S
# Outline: as §1
binder,measurement,setting,value
B1,glycan array binding signal (z-score),[1],0.658
same,glycan array binding signal (z-score),[2],0.497
same,glycan array binding signal (z-score),[3],-0.087
same,glycan array binding signal (z-score),[4],0.203
same,glycan array binding signal (z-score),[5],0.569
same,glycan array binding signal (z-score),[6],-0.295
same,glycan array binding signal (z-score),[7],-0.271
same,glycan array binding signal (z-score),[8],-0.165
same,glycan array binding signal (z-score),[9],-0.47
same,glycan array binding signal (z-score),[10],-0.397
same,glycan array binding signal (z-score),[11],-0.166
same,glycan array binding signal (z-score),[12],0.48
same,glycan array binding signal (z-score),[13],-0.259
same,glycan array binding signal (z-score),[14],-0.159
same,glycan array binding signal (z-score),[15],-0.574
same,glycan array binding signal (z-score),[16],0.289
same,glycan array binding signal (z-score),[17],1.06
same,glycan array binding signal (z-score),[18],0.049
same,glycan array binding signal (z-score),[19],-0.067
same,glycan array binding signal (z-score),Gal(b1-4)GlcNAc6P,-0.431
same,glycan array binding signal (z-score),Gal(b1-6)Gal,-0.362
same,glycan array binding signal (z-score),Gal3S(b1-3)GalNAc,-0.466
same,glycan array binding signal (z-score),Gal3S(b1-3)GlcNAc,0.16
same,glycan array binding signal (z-score),[20],-0.057
same,glycan array binding signal (z-score),Gal3S(b1-4)Glc,0.617
same,glycan array binding signal (z-score),Gal3S(b1-4)Glc6S,0.74
same,glycan array binding signal (z-score),Gal3S(b1-4)GlcNAc,-0.082
same,glycan array binding signal (z-score),[21],1.01
same,glycan array binding signal (z-score),[22],-0.017
same,glycan array binding signal (z-score),[23],0.301
same,glycan array binding signal (z-score),Gal3S4S(b1-4)GlcNAc,-0.223
same,glycan array binding signal (z-score),Gal3S6S(b1-4)GlcNAc,-0.428
same,glycan array binding signal (z-score),Gal3S6S(b1-4)GlcNAc6S,1.61
same,glycan array binding signal (z-score),Gal4S(b1-4)GlcNAc,1.13
same,glycan array binding signal (z-score),Gal4S6S(b1-4)GlcNAc,-1.1
same,glycan array binding signal (z-score),Gal6P(b1-4)GlcNAc,-0.361
same,glycan array binding signal (z-score),Gal6S(b1-3)GlcNAc,0.316
same,glycan array binding signal (z-score),Gal6S(b1-3)GlcNAc6S,0.422

# 2 entries picked at random from those above, as already listed:
binder,measurement,setting,value
B1,glycan array binding signal (z-score),Gal4S6S(b1-4)GlcNAc,-1.1
same,glycan array binding signal (z-score),[21],1.01
